According to publication PMC8263732, “M1BP cooperates with CP190 to activate transcription at TAD borders and promote chromatin insulator activity” (Nature Communications, 2021):
Results are given in words; binding and its absence hold for the method and conditions named. Binding seen in cells or lysates may run through a third protein.

Key:
Test in all cases: co-IP; 500 ug nuclear extract of 0-24 h Drosophila embryos incubated overnight at 4 C with antiserum (anti-Su(Hw), anti-CP190, anti-Mod(mdg4)67.2 or anti-M1BP; normal serum as control) cross-linked to Protein A or G Sepharose; washed twice with HBSMT and once with HBSM; western blotting; efficiency as percent of total input protein
[1] = biological target: T1, Modifier of mdg4 [Mod(mdg4)] 67.2 kDa isoform [Mod(mdg4)67.2] (Drosophila (endogenous in 0-24 h Oregon R embryos)) (UniProt Q86B87)
T1 sequence: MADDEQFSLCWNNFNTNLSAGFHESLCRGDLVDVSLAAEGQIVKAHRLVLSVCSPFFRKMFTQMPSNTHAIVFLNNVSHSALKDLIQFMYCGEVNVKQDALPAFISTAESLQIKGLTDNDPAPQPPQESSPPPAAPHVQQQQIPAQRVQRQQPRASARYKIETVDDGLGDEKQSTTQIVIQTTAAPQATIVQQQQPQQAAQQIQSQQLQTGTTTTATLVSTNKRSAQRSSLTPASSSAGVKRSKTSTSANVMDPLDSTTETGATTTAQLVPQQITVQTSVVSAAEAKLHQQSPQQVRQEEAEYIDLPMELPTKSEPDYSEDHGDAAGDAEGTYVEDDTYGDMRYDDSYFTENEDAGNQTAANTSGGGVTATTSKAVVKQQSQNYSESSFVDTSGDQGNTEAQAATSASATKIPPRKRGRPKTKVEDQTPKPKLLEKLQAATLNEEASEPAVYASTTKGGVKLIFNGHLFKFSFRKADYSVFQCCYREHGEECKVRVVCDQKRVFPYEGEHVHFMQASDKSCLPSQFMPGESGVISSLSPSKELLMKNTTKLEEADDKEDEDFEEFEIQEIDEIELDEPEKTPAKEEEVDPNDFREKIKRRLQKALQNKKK

[2] = biological target: T2, Suppressor of Hairy wing [Su(Hw)] (Drosophila (endogenous in 0-24 h Oregon R embryos)) (UniProt P08970)
T2 sequence: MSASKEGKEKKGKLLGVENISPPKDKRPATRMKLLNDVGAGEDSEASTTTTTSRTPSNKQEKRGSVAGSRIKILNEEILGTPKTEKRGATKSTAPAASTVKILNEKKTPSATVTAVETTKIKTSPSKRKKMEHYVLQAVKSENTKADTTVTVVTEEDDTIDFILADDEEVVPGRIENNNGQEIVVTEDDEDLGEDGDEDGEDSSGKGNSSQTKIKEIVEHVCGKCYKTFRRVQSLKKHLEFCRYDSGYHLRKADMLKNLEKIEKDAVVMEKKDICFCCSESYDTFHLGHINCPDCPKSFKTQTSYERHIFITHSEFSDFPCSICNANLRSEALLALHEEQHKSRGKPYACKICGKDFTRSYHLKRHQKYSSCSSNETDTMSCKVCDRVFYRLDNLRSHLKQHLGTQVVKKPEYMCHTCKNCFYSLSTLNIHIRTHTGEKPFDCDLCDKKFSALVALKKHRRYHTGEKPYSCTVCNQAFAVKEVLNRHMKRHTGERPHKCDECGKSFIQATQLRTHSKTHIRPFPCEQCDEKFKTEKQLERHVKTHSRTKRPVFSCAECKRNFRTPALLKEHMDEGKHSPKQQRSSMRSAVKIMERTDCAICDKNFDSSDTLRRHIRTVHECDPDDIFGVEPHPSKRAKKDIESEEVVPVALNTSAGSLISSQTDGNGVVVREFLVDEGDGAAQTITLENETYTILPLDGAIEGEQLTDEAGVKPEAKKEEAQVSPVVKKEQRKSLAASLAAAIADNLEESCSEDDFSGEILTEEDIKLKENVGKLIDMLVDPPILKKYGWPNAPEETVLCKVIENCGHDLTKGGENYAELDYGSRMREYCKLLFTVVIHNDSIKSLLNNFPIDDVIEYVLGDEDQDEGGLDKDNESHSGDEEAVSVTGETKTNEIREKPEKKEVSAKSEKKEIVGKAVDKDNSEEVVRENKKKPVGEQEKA

[3] = biological target: T3, Motif 1 Binding Protein (M1BP) (Drosophila (endogenous in 0-24 h Oregon R embryos)) (UniProt Q9VHM3)
T3 sequence: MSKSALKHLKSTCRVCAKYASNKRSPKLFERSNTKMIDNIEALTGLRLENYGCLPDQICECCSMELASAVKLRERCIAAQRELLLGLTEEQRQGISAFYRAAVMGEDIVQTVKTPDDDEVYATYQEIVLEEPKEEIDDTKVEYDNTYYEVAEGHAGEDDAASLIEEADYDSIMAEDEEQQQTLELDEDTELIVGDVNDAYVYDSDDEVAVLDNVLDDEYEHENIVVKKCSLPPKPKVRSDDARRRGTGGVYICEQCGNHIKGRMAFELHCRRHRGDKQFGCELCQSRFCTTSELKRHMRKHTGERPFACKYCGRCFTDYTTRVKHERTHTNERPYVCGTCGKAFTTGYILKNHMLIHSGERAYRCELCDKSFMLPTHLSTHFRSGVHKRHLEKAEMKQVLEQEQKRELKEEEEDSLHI

[4] = biological target: T4, Centrosomal protein 190 (CP190) (Drosophila (endogenous in 0-24 h Oregon R embryos)) (UniProt Q24478)
T4 sequence: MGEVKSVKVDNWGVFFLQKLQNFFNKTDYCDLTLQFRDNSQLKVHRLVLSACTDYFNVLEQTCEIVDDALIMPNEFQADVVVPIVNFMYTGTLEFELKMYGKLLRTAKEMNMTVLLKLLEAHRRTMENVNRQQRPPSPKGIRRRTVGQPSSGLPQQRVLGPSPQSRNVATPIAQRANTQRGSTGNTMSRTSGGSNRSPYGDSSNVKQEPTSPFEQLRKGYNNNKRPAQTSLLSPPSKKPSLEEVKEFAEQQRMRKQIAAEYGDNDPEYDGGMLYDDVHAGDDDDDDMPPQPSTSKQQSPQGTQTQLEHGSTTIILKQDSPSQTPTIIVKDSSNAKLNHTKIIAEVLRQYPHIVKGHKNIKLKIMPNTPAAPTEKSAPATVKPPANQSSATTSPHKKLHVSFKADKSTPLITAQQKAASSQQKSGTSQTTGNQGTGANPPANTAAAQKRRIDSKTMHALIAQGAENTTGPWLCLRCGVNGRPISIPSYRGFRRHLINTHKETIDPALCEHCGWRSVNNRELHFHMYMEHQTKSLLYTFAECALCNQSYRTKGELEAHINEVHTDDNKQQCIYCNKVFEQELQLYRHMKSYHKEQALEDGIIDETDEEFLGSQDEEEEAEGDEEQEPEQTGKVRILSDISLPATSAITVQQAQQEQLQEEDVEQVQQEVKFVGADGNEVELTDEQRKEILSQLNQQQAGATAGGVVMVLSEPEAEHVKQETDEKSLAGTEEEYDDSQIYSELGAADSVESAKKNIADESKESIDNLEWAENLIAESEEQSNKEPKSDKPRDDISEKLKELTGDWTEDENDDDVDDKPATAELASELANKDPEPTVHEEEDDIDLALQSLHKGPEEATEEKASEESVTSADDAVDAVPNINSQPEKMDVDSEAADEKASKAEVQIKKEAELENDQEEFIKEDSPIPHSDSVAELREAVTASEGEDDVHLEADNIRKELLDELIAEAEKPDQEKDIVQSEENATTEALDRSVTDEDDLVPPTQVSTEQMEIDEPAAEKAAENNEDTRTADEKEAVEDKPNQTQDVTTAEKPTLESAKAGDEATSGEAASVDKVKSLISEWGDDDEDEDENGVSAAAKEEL

Measured: binding

B1: Polycomb (Pc) (protein, UniProt P26017 1-390)
chain: MTGRGKGSKGKLGRDNATDDPVDLVYAAEKIIQKRVKKGVVEYRVKWKGWNQRYNTWEPEVNILDRRLIDIYEQTNKSSGTPSKRGIKKKEKEPDPEPESEEDEYTFTENDVDTHQATTSSATHDKESKKEKKHHHHHHHHHHIKSERNSGRRSESPLTHHHHHHHHESKRQRIDHSSSSNSSFTHNSFVPEPDSNSSSSEDQPLIGTKRKAEVLKESGKIGVTIKTSPDGPTIKPQPTQQVTPSQQQPFQDQQQAEKIASEAATQLKSEQQATPLATEAINTTPAESGAEEEEVANEEGNQQAPQVPSENNNIPKPCNNLAINQKQPLTPLSPRALPPRFWLPAKCNISNRVVITDVTVNLETVTIRECKTERGFFRERDMKGDSSPVA
no binding: all assays above
